According to the supplement of paper PMC10849652:
Some of the results follow.

Protein sequences, listed by entry. Tags and fused reporters are not part of them. Lines headed by an entry give the natural chain unless they say otherwise; changes in a name come on top.
UniProt Q9BXX2: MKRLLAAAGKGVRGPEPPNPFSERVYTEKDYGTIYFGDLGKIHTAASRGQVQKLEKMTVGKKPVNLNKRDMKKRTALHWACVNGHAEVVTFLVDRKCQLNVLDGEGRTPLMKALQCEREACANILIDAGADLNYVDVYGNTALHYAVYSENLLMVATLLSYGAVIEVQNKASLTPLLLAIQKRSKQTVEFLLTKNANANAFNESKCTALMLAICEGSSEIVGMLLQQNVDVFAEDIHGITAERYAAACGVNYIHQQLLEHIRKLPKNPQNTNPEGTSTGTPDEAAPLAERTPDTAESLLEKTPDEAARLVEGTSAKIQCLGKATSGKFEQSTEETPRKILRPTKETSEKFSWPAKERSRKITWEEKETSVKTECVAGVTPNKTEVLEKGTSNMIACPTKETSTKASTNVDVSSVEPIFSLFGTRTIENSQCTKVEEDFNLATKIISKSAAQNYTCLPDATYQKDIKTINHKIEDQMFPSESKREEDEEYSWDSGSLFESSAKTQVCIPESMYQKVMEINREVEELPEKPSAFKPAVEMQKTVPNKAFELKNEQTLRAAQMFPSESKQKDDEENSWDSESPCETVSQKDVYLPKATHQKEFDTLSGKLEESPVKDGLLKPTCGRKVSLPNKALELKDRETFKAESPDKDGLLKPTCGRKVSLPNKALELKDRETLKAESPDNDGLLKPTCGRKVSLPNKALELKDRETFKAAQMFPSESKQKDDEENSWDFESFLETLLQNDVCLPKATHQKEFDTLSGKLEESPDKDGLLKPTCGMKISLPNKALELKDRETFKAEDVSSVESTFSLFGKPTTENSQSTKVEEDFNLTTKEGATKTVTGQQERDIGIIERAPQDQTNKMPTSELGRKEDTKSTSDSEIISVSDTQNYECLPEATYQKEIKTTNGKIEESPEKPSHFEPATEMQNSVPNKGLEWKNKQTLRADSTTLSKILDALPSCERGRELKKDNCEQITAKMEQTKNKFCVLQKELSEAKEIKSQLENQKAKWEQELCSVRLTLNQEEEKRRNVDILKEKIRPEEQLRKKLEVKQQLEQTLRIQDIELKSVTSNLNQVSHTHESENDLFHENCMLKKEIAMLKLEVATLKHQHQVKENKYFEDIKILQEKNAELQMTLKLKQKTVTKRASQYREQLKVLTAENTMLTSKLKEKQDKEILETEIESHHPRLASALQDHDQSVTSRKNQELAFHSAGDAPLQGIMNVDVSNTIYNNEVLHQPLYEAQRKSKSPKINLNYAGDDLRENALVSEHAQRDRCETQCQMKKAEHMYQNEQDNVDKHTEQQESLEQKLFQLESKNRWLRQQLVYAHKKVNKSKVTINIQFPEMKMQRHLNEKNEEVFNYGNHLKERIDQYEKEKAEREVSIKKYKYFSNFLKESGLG
UniProt Q9C0C7: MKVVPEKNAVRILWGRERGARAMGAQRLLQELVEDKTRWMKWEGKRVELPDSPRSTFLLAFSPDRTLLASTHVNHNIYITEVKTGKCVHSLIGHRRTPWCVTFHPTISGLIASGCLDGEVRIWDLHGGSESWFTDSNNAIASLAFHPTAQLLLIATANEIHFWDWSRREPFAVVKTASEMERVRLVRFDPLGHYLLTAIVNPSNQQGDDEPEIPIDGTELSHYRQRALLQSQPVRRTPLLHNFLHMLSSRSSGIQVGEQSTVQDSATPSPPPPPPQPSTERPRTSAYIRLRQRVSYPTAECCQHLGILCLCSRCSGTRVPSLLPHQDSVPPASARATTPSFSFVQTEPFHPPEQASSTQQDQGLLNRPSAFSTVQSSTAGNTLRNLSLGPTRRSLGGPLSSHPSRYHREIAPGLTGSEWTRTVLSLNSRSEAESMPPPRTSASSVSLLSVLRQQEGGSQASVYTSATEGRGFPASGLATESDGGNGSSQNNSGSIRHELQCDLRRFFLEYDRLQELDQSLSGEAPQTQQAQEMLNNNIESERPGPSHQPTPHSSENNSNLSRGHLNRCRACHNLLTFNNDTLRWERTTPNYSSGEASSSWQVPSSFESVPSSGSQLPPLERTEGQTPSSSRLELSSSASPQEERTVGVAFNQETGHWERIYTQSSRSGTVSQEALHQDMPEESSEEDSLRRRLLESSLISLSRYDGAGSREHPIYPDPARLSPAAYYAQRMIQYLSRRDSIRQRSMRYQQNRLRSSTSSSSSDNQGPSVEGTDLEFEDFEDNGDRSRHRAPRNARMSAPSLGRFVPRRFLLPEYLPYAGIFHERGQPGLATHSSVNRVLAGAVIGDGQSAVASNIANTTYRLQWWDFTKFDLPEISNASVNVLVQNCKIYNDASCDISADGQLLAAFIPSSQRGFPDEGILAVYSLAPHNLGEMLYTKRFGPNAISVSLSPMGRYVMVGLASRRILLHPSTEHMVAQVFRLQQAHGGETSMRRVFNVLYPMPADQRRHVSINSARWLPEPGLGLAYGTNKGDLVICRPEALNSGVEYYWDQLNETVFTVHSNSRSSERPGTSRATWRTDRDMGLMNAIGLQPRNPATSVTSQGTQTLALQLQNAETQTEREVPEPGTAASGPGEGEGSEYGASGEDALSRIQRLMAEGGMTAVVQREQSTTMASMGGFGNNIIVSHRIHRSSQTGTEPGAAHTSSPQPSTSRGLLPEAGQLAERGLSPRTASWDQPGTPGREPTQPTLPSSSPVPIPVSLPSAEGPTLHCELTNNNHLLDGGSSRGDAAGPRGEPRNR
UniProt Q86XL3: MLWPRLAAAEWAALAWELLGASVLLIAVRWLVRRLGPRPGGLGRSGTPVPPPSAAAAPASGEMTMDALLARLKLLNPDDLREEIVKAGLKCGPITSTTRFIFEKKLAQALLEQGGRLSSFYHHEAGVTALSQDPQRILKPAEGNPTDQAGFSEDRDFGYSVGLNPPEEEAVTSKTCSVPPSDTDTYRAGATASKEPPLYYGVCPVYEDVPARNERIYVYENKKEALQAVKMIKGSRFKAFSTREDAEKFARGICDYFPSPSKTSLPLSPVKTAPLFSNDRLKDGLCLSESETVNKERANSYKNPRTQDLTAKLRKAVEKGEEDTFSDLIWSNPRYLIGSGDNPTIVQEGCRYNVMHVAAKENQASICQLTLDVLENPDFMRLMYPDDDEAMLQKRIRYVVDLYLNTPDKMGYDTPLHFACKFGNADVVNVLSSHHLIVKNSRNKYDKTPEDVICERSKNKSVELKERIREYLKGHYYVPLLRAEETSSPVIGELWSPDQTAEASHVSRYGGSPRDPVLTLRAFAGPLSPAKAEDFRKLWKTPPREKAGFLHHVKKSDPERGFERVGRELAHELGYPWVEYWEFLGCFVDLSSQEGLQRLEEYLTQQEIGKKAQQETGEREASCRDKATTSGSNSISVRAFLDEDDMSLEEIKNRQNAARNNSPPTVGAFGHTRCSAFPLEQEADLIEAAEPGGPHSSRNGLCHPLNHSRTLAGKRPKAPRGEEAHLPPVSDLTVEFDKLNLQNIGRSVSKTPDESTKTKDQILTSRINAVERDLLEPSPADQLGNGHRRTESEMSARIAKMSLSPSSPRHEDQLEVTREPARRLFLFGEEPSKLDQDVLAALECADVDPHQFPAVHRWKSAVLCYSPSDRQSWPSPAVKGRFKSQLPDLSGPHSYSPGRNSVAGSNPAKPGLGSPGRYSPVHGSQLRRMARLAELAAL
UniProt P30838: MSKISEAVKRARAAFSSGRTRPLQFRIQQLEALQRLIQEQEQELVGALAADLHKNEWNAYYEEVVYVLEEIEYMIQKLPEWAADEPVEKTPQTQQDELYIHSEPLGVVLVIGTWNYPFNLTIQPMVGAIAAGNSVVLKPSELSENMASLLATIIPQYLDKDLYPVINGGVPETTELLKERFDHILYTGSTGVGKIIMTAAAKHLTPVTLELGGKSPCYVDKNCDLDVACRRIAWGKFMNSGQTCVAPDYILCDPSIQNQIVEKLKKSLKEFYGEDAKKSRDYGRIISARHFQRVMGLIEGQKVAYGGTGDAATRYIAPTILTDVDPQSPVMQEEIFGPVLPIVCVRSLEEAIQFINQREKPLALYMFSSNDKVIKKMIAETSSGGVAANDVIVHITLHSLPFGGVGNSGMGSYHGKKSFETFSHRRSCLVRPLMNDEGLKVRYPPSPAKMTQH
UniProt P13196: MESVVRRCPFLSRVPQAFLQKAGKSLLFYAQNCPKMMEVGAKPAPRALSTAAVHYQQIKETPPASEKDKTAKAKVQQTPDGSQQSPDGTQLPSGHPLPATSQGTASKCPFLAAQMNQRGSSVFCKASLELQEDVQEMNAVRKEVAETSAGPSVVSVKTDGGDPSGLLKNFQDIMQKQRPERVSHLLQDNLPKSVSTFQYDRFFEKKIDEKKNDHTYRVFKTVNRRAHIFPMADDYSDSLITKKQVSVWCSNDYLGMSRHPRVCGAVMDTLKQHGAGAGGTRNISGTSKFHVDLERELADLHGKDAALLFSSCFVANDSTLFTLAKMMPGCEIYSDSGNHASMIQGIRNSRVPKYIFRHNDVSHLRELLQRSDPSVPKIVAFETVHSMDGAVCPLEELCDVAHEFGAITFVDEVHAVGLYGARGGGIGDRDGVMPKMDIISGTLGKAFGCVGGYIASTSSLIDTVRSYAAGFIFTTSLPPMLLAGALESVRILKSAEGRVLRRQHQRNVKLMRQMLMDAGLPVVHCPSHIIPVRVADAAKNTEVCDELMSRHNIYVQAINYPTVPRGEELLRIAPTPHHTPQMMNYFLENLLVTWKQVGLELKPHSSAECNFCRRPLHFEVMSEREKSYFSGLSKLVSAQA
UniProt Q8N7Z5: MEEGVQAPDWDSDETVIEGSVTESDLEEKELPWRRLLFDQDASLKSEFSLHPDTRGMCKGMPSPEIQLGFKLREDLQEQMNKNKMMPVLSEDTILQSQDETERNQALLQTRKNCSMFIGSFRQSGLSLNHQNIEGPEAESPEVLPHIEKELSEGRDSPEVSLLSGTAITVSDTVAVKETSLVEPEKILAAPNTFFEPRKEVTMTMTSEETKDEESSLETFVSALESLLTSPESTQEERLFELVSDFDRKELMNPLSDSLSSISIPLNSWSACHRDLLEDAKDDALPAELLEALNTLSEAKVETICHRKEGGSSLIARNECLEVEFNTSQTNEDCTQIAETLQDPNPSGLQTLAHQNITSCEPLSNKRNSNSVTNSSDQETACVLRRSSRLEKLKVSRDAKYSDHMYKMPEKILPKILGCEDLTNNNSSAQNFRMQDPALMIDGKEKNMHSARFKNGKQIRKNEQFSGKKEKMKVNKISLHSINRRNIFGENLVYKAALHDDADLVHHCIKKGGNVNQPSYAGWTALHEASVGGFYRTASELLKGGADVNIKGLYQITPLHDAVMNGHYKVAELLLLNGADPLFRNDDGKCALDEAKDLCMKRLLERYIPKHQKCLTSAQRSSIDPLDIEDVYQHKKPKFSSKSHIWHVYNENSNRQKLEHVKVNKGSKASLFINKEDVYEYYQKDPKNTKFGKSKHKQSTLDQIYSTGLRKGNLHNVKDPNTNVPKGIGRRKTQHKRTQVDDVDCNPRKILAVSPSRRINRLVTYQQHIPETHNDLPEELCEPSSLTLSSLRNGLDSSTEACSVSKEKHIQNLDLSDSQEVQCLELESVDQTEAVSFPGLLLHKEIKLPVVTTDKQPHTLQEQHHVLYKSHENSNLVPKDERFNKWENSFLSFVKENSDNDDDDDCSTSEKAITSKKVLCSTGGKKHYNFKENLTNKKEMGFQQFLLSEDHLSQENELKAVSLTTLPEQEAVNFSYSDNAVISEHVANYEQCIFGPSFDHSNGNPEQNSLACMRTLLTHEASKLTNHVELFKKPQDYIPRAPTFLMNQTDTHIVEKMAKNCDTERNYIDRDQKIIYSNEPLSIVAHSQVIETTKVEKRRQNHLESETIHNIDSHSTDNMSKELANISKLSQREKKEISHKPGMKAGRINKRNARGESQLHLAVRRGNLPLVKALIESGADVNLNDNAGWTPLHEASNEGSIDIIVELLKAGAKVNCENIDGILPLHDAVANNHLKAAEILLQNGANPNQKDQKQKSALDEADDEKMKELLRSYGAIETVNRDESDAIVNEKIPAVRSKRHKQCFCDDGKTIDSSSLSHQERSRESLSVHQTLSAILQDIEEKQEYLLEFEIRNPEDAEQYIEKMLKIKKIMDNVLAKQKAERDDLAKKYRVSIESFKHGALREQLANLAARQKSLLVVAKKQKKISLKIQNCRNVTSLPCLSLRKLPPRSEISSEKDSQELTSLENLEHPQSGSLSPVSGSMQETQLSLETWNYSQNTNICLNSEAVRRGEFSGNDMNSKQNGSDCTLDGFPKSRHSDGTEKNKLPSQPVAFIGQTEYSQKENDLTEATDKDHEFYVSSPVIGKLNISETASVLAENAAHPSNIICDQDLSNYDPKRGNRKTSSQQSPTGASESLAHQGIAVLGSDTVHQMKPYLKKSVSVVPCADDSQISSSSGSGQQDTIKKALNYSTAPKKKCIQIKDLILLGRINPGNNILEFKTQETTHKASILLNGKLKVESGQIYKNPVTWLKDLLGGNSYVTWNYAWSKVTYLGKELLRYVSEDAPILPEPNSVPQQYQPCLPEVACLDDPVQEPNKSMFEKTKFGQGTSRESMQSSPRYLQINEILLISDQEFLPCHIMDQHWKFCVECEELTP

compound: Cc1nc(Nc2ncc(C(=O)Nc3c(C)cccc3Cl)s2)cc(N2CCN(CCO)CC2)n1 [dasatinib]; assay: log2 fold change, soluble protein after heating vs DMSO (PISA); higher = thermal stabilisation; K562 lysate, 10 uM; active = over 0.2 and 3.5 SD of the protein, either way, in both replicates (recomputed)
Method in brief: (§1)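 Soluble protein was defined as the supernatant remaining after 21,000xg for 90 min, following pooling of heated aliquots and adjustment to 0.5% NP-40 at 4°C. Before that, crude K562 extract at 1 mg/mL protein in PBS pH 7.4 with 1 mM MgCl2 was treated with 10 μM compound for 30 min and heated for 3 min across 48°C-58°C. Quantification used TMTpro 16plex LC-MS/MS with channel sums equalised, and values are log-two fold changes in thermal stability relative to solvent controls from duplicates.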

Target | log2 fold change
ANKRD13B (UniProt Q86YJ7) | inactive: -0.073
AP4M1 (UniProt O00189) | inactive: -0.027
ANKRD30B (UniProt Q9BXX2) | inactive: -0.061
ANXA6 (UniProt E5RK69) | inactive: -0.048
AMBRA1 isoform 5 (UniProt Q9C0C7) | inactive: -0.164
ANKLE2 (UniProt Q86XL3) | inactive: -0.081
ALDH3A1 (UniProt P30838) | active: 1.35
AMZ2 (UniProt Q86W34) | inactive: -0.046
ALG12 (UniProt Q9BV10) | inactive: 0.027
AKTIP isoform 2 (UniProt Q9H8T0) | inactive: -0.005
ANKRD40 (UniProt Q6AI12) | inactive: 0.197
ALAS1 (UniProt P13196) | inactive: -0.295
AP1S3 isoform 4 (UniProt Q96PC3) | inactive: 0.027
AP3M2 (UniProt P53677) | inactive: -0.24
ANKRD31 (UniProt Q8N7Z5) | inactive: -0.053
ANKHD1 (UniProt D6RHC4) | inactive: 0.069
ANAPC16 (UniProt Q96DE5) | inactive: 0.021

compound: Cc1ncc(-c2ccnc(Nc3ccc(S(C)(=O)=O)cc3)n2)n1C(C)C; assay: as above
Method in brief: as §1

Target | log2 fold change
AP4M1 (UniProt O00189) | inactive: 0.001
ANKRD26 (UniProt Q9UPS8) | inactive: 0.106
ANKRD30B (UniProt Q9BXX2) | inactive: 0.072
ANXA6 (UniProt E5RK69) | inactive: 0.138
AMBRA1 isoform 5 (UniProt Q9C0C7) | inactive: -0.139
ANKLE2 (UniProt Q86XL3) | inactive: 0.068
AP1AR (UniProt Q63HQ0) | inactive: -0.034
AMZ2 (UniProt Q86W34) | inactive: -0.014
ALDOA (UniProt H3BPS8) | inactive: 0.11
ANKRD40 (UniProt Q6AI12) | inactive: 0.071
ALAS1 (UniProt P13196) | inactive: 0.01
ANKH (UniProt Q9HCJ1) | inactive: -0.209
AP1S2 (UniProt P56377) | inactive: -0.28
AP1S3 isoform 4 (UniProt Q96PC3) | inactive: -0.007
AP3S2 (UniProt P59780) | inactive: 0.168
AKT1S1 (UniProt M0R2V8) | inactive: 0.145
ANKRD44 isoform 2 (UniProt Q8N8A2) | inactive: -0.216
ANKRD50 (UniProt Q9ULJ7) | inactive: -0.057
ANAPC16 (UniProt Q96DE5) | inactive: -0.159
AP3D1 isoform 2 (UniProt O14617) | inactive: 0.376

compound: Cn1cc(-c2ccc3c(c2)CCN3C(=O)Cc2cccc(C(F)(F)F)c2)c2c(N)ncnc21; assay: as above
Method in brief: as §1

Target | log2 fold change
ANKRD13B (UniProt Q86YJ7) | inactive: 0.19
AP4M1 (UniProt O00189) | inactive: -0.066
ANKRD30B (UniProt Q9BXX2) | inactive: -0.015
ANXA6 (UniProt E5RK69) | inactive: 0.184
AMBRA1 isoform 5 (UniProt Q9C0C7) | inactive: 0.201
ANKLE2 (UniProt Q86XL3) | inactive: -0.003
ALDH3A1 (UniProt P30838) | inactive: -0.024
AMZ2 (UniProt Q86W34) | inactive: -0.051
ALG12 (UniProt Q9BV10) | inactive: 0.045
AKTIP isoform 2 (UniProt Q9H8T0) | inactive: 0.105
ANKRD40 (UniProt Q6AI12) | inactive: -0.064
ALAS1 (UniProt P13196) | inactive: 0.231
AP1S3 isoform 4 (UniProt Q96PC3) | inactive: 0.102
AP3M2 (UniProt P53677) | inactive: 0.032
ANKRD31 (UniProt Q8N7Z5) | inactive: 0.089
ANKHD1 (UniProt D6RHC4) | inactive: -0.126
ANAPC16 (UniProt Q96DE5) | inactive: 0.001

compound: Cn1cc(CNCC2CCN(c3ncc(C(=O)NO)cn3)CC2)c2ccccc21 [quisinostat]; assay: as above
Method in brief: as §1

Target | log2 fold change
AP4M1 (UniProt O00189) | inactive: -0.112
ANKRD26 (UniProt Q9UPS8) | inactive: -0.128
ANXA6 (UniProt E5RK69) | inactive: -0.08
AMBRA1 isoform 5 (UniProt Q9C0C7) | inactive: -0.01
ANKLE2 (UniProt Q86XL3) | inactive: -0.068
ALDH3A1 (UniProt P30838) | inactive: -0.381
AP1AR (UniProt Q63HQ0) | inactive: -0.078
AMZ2 (UniProt Q86W34) | inactive: -0.032
ANKRD40 (UniProt Q6AI12) | inactive: -0.161
ANKH (UniProt Q9HCJ1) | inactive: -0.091
AP1S2 (UniProt P56377) | inactive: -0.094
ANKRD31 (UniProt Q8N7Z5) | inactive: -0.001
ANKRD50 (UniProt Q9ULJ7) | inactive: -0.221
ANAPC16 (UniProt Q96DE5) | inactive: -0.045
